# Measurements reported in PubChem BioAssay AID1508597 (Cure First, 2020).
# Screen: 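Survival screen with siRNA in ovarian cancer cells derived from patients, with or without rucaparib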 (primary screen)
# Cells: human ovarian carcinoma lines grown from tumours: OCI-P5x (papillary serous) and OCI-C5x (clear cell)
# Reagent: siRNA pool against human genes, 1.25 pmol siRNA per well
# Time to read-out: 72 h or 96 h, depending on the cell culture
# Treatment: rucaparib 20 µM (about IC30) or vehicle, present until read-out
# Measurement: 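Luminescent ATP-based viability assay read 72 or 96 h after transfection, depending on culture, given as normalised percent viability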
# Scale: viability, normalised: higher = more viable cells remaining
# Call rule: 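a well counts as a hit if its normalised viability is under 80 percent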
# Calls: active = viability under 80%; inactive = viability 80% or more
# The deposit covers about 2,100 reagents; this is a part drawn at random. 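Calls flag viability under 80% in either arm, not effects specific to rucaparib; the reference for percent is not stated.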 Not stated in the record: the 100% reference.
"viability, normalised (%)",activity call,target gene,rucaparib or vehicle,cell line,technical replicate
72,active,HIPK2,Rucaparib,OCI-C5x (clear cell),1
82.5,inactive,HIPK2,Rucaparib,OCI-C5x (clear cell),2
65.4,active,HIPK2,Rucaparib,OCI-C5x (clear cell),3
81.7,inactive,HIPK2,Rucaparib,OCI-P5x (serous),1
94.1,inactive,HIPK2,Rucaparib,OCI-P5x (serous),2
64.2,active,HIPK2,Rucaparib,OCI-P5x (serous),3
79.5,active,HIPK2,Vehicle,OCI-C5x (clear cell),1
58.1,active,HIPK2,Vehicle,OCI-C5x (clear cell),2
54.9,active,HIPK2,Vehicle,OCI-C5x (clear cell),3
94.7,inactive,HIPK2,Vehicle,OCI-P5x (serous),1
72.3,active,HIPK2,Vehicle,OCI-P5x (serous),2
88.7,inactive,HIPK2,Vehicle,OCI-P5x (serous),3
60.4,active,EP400,Rucaparib,OCI-C5x (clear cell),1
39.2,active,EP400,Rucaparib,OCI-C5x (clear cell),2
49.8,active,EP400,Rucaparib,OCI-C5x (clear cell),3
62.2,active,EP400,Rucaparib,OCI-P5x (serous),1
65.1,active,EP400,Rucaparib,OCI-P5x (serous),2
69,active,EP400,Rucaparib,OCI-P5x (serous),3
48.4,active,EP400,Vehicle,OCI-C5x (clear cell),1
59.7,active,EP400,Vehicle,OCI-C5x (clear cell),2
51.8,active,EP400,Vehicle,OCI-C5x (clear cell),3
57.1,active,EP400,Vehicle,OCI-P5x (serous),1
71.8,active,EP400,Vehicle,OCI-P5x (serous),2
62.7,active,EP400,Vehicle,OCI-P5x (serous),3

Laid out differently: entries from further up.
HIPK2, rucaparib or vehicle Vehicle, cell line OCI-P5x (serous), technical replicate 1 → viability, normalised (%) = 94.7; activity call = inactive
HIPK2, rucaparib or vehicle Vehicle, cell line OCI-P5x (serous), technical replicate 2 → viability, normalised (%) = 72.3; activity call = active
HIPK2, rucaparib or vehicle Vehicle, cell line OCI-P5x (serous), technical replicate 3 → viability, normalised (%) = 88.7; activity call = inactive
EP400, rucaparib or vehicle Rucaparib, cell line OCI-C5x (clear cell), technical replicate 1 → viability, normalised (%) = 60.4; activity call = active

Next records follow.
"viability, normalised (%)",activity call,target gene,rucaparib or vehicle,cell line,technical replicate
49,active,PTPN9,Rucaparib,OCI-C5x (clear cell),1
37.9,active,PTPN9,Rucaparib,OCI-C5x (clear cell),2
56.8,active,PTPN9,Rucaparib,OCI-C5x (clear cell),3
43.4,active,PTPN9,Rucaparib,OCI-P5x (serous),1
48.1,active,PTPN9,Rucaparib,OCI-P5x (serous),2
97.6,inactive,PTPN9,Rucaparib,OCI-P5x (serous),3
62.4,active,PTPN9,Vehicle,OCI-C5x (clear cell),1
48.9,active,PTPN9,Vehicle,OCI-C5x (clear cell),2
45.6,active,PTPN9,Vehicle,OCI-C5x (clear cell),3
81.7,inactive,PTPN9,Vehicle,OCI-P5x (serous),1
55.7,active,PTPN9,Vehicle,OCI-P5x (serous),2
84.4,inactive,PTPN9,Vehicle,OCI-P5x (serous),3
58.9,active,JADE3,Rucaparib,OCI-C5x (clear cell),1
57.7,active,JADE3,Rucaparib,OCI-C5x (clear cell),2
68.6,active,JADE3,Rucaparib,OCI-C5x (clear cell),3
54.5,active,JADE3,Rucaparib,OCI-P5x (serous),1
56,active,JADE3,Rucaparib,OCI-P5x (serous),2
63.2,active,JADE3,Rucaparib,OCI-P5x (serous),3
50.7,active,JADE3,Vehicle,OCI-C5x (clear cell),1
49,active,JADE3,Vehicle,OCI-C5x (clear cell),2
63.6,active,JADE3,Vehicle,OCI-C5x (clear cell),3
73.3,active,JADE3,Vehicle,OCI-P5x (serous),1
70.1,active,JADE3,Vehicle,OCI-P5x (serous),2
80.2,inactive,JADE3,Vehicle,OCI-P5x (serous),3
